Experimental data: PMC9171240

By UniProt entry, the sequences of proteins in these tests, tags left out. Residues count along the entry.
UniProt P07237, residues 18-508: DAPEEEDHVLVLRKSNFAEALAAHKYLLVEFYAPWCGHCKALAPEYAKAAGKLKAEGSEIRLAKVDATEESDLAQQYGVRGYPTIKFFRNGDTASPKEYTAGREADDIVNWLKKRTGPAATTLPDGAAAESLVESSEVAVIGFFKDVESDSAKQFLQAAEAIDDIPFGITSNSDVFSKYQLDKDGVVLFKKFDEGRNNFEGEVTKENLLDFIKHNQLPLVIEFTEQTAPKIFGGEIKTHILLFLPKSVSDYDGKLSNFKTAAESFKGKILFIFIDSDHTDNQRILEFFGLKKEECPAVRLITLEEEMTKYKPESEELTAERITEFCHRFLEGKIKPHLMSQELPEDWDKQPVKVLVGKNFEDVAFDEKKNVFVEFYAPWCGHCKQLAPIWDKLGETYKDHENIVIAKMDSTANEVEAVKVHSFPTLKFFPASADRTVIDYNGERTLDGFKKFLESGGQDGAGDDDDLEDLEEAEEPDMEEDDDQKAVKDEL
UniProt P02679, residues 27-453: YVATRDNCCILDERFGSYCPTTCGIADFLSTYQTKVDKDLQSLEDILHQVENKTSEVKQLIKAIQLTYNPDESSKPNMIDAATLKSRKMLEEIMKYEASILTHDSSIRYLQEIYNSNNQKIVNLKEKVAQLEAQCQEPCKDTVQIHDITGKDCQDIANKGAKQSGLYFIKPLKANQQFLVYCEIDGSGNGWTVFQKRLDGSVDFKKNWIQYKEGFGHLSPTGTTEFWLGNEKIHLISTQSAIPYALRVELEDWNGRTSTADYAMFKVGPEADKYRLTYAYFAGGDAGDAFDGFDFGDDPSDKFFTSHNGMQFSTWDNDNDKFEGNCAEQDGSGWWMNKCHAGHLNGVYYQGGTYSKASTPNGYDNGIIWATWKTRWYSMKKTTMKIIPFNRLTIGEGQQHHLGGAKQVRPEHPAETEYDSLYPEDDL
UniProt P11021, residues 19-654: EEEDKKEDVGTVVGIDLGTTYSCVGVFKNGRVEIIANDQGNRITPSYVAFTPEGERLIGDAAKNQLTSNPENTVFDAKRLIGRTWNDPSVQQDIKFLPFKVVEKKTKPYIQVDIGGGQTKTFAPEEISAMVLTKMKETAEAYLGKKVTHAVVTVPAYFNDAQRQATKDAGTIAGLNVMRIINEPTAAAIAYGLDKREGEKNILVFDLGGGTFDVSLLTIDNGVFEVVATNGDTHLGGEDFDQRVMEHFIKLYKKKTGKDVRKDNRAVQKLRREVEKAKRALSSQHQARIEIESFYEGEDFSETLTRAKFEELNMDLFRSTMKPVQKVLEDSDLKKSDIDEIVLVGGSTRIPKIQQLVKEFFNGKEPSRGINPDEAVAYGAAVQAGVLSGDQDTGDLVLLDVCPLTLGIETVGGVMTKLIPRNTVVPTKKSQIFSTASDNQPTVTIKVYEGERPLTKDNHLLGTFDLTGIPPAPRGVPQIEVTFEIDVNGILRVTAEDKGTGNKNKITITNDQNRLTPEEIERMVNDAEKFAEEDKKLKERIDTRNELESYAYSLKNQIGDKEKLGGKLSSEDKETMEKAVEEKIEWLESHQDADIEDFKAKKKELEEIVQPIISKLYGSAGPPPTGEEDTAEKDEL
UniProt O14744: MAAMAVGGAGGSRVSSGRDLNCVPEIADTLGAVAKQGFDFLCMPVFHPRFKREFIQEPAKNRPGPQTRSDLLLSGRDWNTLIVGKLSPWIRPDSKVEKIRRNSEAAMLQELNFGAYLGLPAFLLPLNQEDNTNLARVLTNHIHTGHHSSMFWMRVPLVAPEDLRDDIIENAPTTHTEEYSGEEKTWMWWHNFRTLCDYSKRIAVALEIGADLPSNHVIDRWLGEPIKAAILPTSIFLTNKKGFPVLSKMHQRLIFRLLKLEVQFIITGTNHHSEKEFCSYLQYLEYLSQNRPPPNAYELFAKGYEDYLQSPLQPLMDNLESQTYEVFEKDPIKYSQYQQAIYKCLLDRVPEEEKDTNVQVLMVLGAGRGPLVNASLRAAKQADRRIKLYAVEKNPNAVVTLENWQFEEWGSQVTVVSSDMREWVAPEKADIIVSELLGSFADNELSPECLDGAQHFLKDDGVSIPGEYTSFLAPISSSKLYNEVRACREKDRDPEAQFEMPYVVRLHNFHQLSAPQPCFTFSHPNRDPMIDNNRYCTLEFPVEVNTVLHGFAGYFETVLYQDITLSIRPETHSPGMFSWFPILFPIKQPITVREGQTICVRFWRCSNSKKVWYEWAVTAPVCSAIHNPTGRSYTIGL
UniProt Q9NYF8: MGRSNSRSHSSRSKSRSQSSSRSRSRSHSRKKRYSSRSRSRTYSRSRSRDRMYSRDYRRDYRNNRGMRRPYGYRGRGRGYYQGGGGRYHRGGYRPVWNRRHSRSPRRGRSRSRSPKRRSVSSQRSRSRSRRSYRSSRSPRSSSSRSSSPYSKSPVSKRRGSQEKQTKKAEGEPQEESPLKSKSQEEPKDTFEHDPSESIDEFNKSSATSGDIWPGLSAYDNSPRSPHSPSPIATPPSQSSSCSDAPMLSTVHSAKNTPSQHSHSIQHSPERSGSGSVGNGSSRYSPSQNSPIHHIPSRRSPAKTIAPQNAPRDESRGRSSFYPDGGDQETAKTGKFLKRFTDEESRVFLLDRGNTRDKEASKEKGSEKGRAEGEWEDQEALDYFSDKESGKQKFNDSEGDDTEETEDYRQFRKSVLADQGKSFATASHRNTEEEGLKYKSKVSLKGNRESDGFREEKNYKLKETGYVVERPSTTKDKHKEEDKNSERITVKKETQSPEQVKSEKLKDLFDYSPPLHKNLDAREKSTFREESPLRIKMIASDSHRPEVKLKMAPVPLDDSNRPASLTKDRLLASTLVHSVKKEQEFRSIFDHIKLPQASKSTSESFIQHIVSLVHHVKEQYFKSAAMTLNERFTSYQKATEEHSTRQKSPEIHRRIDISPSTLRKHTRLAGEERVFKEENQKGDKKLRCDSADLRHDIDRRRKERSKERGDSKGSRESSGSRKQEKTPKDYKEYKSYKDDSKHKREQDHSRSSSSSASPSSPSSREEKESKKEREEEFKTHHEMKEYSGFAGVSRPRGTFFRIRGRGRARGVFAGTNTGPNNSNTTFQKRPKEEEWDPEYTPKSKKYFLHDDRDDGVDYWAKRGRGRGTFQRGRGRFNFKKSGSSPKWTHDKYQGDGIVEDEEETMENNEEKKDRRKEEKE
UniProt P21333: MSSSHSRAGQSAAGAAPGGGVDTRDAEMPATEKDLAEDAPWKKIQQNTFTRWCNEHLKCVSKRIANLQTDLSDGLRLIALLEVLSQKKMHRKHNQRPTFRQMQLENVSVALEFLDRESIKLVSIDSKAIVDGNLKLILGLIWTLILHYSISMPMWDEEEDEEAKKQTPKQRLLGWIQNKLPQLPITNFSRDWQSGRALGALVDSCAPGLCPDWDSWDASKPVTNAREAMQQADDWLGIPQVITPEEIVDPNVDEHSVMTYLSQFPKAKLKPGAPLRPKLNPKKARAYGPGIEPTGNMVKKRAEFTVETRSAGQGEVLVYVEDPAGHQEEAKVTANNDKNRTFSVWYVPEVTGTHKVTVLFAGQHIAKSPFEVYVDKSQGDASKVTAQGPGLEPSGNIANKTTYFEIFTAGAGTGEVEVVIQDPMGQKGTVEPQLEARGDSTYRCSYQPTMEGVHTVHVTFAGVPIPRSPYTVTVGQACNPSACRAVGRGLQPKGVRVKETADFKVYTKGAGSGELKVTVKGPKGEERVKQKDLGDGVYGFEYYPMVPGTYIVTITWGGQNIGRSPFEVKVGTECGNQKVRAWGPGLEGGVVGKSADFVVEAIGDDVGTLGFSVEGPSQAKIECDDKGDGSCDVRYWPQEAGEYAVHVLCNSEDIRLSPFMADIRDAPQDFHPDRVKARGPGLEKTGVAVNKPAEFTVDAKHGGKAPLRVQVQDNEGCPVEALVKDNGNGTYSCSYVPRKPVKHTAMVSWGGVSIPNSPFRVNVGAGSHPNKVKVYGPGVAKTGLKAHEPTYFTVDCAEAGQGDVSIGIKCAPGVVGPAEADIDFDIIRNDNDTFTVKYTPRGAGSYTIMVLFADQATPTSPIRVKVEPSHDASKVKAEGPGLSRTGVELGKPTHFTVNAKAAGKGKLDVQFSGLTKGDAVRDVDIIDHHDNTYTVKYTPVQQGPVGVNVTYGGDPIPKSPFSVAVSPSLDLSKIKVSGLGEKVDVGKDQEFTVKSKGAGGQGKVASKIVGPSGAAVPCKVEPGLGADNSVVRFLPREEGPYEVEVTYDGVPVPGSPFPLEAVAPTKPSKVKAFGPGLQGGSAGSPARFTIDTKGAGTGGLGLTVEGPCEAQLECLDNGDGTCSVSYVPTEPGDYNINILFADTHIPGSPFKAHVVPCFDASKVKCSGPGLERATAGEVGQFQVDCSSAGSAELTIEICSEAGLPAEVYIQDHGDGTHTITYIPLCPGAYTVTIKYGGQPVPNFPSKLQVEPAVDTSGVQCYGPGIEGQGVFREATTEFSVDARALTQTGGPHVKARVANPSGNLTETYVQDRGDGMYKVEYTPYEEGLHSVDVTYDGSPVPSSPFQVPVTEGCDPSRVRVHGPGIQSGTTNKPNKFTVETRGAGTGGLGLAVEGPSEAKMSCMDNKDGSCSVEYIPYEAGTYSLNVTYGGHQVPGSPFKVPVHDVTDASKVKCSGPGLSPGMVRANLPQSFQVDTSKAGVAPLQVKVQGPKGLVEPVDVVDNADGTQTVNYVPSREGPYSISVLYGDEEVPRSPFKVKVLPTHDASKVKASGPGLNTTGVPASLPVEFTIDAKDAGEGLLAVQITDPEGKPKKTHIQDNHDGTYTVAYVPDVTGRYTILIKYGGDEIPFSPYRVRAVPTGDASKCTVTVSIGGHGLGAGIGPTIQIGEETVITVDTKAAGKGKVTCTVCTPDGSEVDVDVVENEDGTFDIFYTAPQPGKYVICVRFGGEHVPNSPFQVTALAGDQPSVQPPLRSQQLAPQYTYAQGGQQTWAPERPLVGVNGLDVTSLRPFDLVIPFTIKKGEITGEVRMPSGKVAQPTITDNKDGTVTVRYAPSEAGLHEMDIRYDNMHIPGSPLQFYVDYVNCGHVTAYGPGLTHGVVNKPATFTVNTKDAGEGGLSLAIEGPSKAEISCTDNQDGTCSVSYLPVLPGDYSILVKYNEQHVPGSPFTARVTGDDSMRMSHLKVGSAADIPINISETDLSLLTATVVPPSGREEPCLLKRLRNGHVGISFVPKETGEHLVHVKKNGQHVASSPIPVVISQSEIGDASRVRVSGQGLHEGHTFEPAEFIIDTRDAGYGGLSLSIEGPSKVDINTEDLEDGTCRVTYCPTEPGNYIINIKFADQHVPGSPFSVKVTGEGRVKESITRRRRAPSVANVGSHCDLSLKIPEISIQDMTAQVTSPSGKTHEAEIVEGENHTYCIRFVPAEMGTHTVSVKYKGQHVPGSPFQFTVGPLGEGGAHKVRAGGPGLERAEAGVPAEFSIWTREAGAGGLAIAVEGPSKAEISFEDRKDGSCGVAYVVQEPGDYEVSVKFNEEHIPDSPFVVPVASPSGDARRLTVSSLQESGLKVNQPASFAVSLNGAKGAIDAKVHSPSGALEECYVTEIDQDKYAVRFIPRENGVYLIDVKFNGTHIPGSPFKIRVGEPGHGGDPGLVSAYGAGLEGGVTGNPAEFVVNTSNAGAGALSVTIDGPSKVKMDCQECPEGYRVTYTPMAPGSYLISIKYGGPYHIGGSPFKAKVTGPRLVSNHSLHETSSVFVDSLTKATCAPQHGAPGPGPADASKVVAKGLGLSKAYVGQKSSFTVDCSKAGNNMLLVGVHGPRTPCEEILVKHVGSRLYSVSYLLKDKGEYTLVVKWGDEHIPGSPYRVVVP
UniProt P08238: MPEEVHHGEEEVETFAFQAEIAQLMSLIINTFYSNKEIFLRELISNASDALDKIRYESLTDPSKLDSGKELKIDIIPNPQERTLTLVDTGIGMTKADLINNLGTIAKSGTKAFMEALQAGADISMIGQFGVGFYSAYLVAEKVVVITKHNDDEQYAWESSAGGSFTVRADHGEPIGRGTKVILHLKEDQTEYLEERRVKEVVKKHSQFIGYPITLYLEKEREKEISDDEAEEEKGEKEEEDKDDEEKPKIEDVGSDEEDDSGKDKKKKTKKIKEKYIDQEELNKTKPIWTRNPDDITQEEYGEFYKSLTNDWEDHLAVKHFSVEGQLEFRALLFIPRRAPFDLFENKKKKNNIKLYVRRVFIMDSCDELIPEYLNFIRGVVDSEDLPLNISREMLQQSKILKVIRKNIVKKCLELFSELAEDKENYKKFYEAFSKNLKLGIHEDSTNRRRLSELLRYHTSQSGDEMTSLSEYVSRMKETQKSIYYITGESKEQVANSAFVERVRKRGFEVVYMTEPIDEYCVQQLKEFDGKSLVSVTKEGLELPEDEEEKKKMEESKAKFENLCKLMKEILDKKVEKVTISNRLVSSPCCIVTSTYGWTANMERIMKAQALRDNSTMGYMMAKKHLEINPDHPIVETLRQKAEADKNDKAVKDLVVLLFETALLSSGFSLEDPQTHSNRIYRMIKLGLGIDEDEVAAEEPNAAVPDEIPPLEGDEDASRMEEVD

molecular target: T1, 3 × Flag-SMPDL3A (sphingomyelin phodiesterase acid-like 3A) (UniProt Q92484); assay: affinity purification with mass spectrometry; Flag beads on NP-40 lysate of Huh7 cells overexpressing Flag-tagged SMPDL3A, eluted with 3 × Flag peptide; SDS-PAGE, Coomassie staining, extracted protein band analysed by shotgun mass spectrometry
T1 sequence: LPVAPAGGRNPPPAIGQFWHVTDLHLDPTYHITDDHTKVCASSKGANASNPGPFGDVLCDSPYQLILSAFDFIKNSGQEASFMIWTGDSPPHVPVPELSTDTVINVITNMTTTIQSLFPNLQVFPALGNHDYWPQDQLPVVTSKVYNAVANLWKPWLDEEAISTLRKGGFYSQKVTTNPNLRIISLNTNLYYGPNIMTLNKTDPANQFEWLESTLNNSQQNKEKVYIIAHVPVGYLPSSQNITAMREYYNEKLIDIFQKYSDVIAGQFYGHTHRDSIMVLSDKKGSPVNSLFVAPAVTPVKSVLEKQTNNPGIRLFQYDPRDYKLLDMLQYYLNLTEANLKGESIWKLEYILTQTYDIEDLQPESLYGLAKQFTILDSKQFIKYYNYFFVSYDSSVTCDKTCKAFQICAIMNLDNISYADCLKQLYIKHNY

Substance	binding
P4HB (from UniProt P07237 18-508)	binds
CASP14 (human (endogenous in Huh7))	binds
FGG (from UniProt P02679 27-453)	binds
HSPA5 (from UniProt P11021 19-654)	binds
PRMT5 (from UniProt O14744 1-637)	binds

Other lines, results leading:

binding	Substance
binds	BCLAF1 (from UniProt Q9NYF8 1-920)
binds	FLNA (from UniProt P21333 1-2647)
binds	HSP90AB1 (from UniProt P08238 1-724)
binds	SPTBN1 (from UniProt Q01082 1-2364)
binds	MYH9 (from UniProt P35579 1-1960)

No constants are given. Whether binding was seen depends on the method and setting. Binding seen in cells or lysates may run through a third protein. These calls come from enrichment with a bait or labelling near it, and not all partners need be listed. Sequences can lack the tags named with a protein.
